{"source": "patent US20260306421A1", "about": "“SYSTEMS AND METHODS FOR TRANSDERMAN PATCH DELIVERY” (VITAMAX PATCH WHOLESALER LLC, priority 2022, published 2026)", "key": {"[1]": {"test": "Recovery of iron from spiked porcine skin layers", "conditions": "in PG, mean ± SD, n = 3"}, "[2]": {"test": "Recovery of cholecalciferol and cholecalciferol phosphate disodium from spiked porcine skin layers", "conditions": "in PG, mean ± SD, n = 3"}}, "data": [{"compound": "CCc1occc(=O)c1[O-].CCc1occc(=O)c1[O-].CCc1occc(=O)c1[O-].[Fe+3]", "note": "[Iron ethyl maltol, iron ethyl maltol]", "values": [{"measurement": "Recovery in skin", "setting": "[1]; Dermis", "result": "96 ± 8", "unit": "%"}, {"measurement": "Recovery in skin", "setting": "[1]; Epidermis", "result": "78 ± 10", "unit": "%"}, {"measurement": "Recovery in skin", "setting": "[1]; Stratum corneum", "result": "104 ± 25", "unit": "%"}]}, {"compound": "C=C1CC[C@H](O)C/C1=C/C=C1\\CCC[C@]2(C)[C@@H]([C@H](C)CCCC(C)C)CC[C@@H]12", "note": "[Cholecalciferol, reference compound]", "values": [{"measurement": "Recovery in skin", "setting": "[2]; Dermis", "result": "102 ± 4", "unit": "%"}, {"measurement": "Recovery in skin", "setting": "[2]; Epidermis", "result": "92 ± 2", "unit": "%"}, {"measurement": "Recovery in skin", "setting": "[2]; Stratum corneum", "result": "114 ± 5", "unit": "%"}]}, {"compound": "cholecalciferol phosphate disodium", "values": [{"measurement": "Recovery in skin", "setting": "[2]; Dermis", "result": "87 ± 14", "unit": "%"}, {"measurement": "Recovery in skin", "setting": "[2]; Epidermis", "result": "14 ± 4", "unit": "%"}, {"measurement": "Recovery in skin", "setting": "[2]; Stratum corneum", "result": "79 ± 7", "unit": "%"}]}, {"compound": "O.O.O.O.O.O.[Cl-].[Cl-].[Cl-].[Fe+3]", "note": "[Iron chloride hexahydrate, reference compound]", "values": [{"measurement": "Recovery in skin", "setting": "[1]; Dermis", "result": "59 ± 17", "unit": "%"}, {"measurement": "Recovery in skin", "setting": "[1]; Epidermis", "result": "51 ± 6", "unit": "%"}, {"measurement": "Recovery in skin", "setting": "[1]; Stratum corneum", "result": "155 ± 7", "unit": "%"}]}]}
